# Measured values: the supplement of paper PMC8728848
# The list shows a part of the results.
# B1: GS13814A-bth-462-26-462 (Bacteroides thetaiotaomicron) (protein)
# chain: DDRDNLMVNDQIGLLHSTYTETEIFRGMDTPYQLFVIKSGKGKQETEVSISVDETVLQSYNTDNGTSIQLLPSDCYTILQPALRLNDSDYRKAFDIKWNADRLSDLLSTGKEYGLPIQMSVVQNFISADDERLKTIIVPTIKEPYLQMDVPGMSPVTDFMPTFGDLNERELFVKIRTNYSNDEDISFQIEVDPQLVIDYNTAHGTAYKMLPESSFTVDNKGVILTGMKETFIKIKYHKKGLIPEEGTYLFGDYVLPLRITSVSKYGISPDAASKLYTVKFQPDPIDKKGWSVIDFNNCCTQDGGWYLNMGWGVESLIDNNPGTQWLCRWDVKEPLPYYFVFDMGKEYTLFRFGFANPVAPAAHVWAGTSKAGYVEASIDNENWVKLKDWTSPKIGEPNVNMDVPATQARYIRFVITDTYPTYDGLRVSLGEVYAWGM
# Tests used:
# Test in all cases: glycan array binding signal (z-score within array); higher = stronger binding
# Conditions in all cases: glycan notation: IUPAC condensed, linker removed
# [1] = target: GlcNAc(b1-2)[GlcNAc(b1-4)]Man(a1-3)[GlcNAc(b1-4)][GlcNAc(b1-2)[GlcNAc(b1-6)]Man(a1-6)]Man(b1-4)GlcNAc(b1-4)GlcNAc
# Method in brief: (§1)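 Negative Z-scores can be read as non-binding. The Z-score is calculated within each array and then averaged across arrays of one protein sequence at different concentrations or buffers and across linkers. Arrays, 3228 in all, were curated from the Consortium for Functional Glycomics database and kept only where the protein sequence was available.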
# [2] = target: GlcNAc(b1-2)[GlcNAc(b1-4)]Man(a1-3)[GlcNAc(b1-4)][GlcNAc(b1-2)[GlcNAc(b1-6)]Man(a1-6)]Man(b1-4)GlcNAc(b1-4)[Fuc(a1-6)]GlcNAc
# Method in brief: as §1
# [3] = target: GlcNAc(b1-2)[GlcNAc(b1-6)]Man(a1-6)[GlcNAc(b1-2)Man(a1-3)]Man(b1-4)GlcNAc(b1-4)GlcNAc
# Method in brief: as §1
# [4] = target: GlcNAc(b1-2)[GlcNAc(b1-6)]Man(a1-6)[GlcNAc(b1-2)Man(a1-3)]Man(b1-4)GlcNAc(b1-4)[Fuc(a1-6)]GlcNAc
# Method in brief: as §1
# [5] = target: GlcNAc(b1-2)[GlcNAc(b1-6)]Man(a1-6)[GlcNAc(b1-4)][GlcNAc(b1-2)Man(a1-3)]Man(b1-4)GlcNAc(b1-4)GlcNAc
# Method in brief: as §1
# GlcNAc(b1-3)Fuc = target: GlcNAc(b1-3)Fuc
# Method in brief: as §1
# GlcNAc(b1-3)Gal = target: GlcNAc(b1-3)Gal
# Method in brief: as §1
# [6] = target: GlcNAc(b1-3)Gal(b1-3)GalNAc
# Method in brief: as §1
# GlcNAc(b1-3)Gal(b1-4)Glc = target: GlcNAc(b1-3)Gal(b1-4)Glc
# Method in brief: as §1
# [7] = target: GlcNAc(b1-3)Gal(b1-4)GlcNAc
# Method in brief: as §1
# [8] = target: GlcNAc(b1-3)Gal(b1-4)GlcNAc(b1-2)Man(a1-3)[GlcNAc(b1-3)Gal(b1-4)GlcNAc(b1-2)Man(a1-6)]Man(b1-4)GlcNAc(b1-4)GlcNAc
# Method in brief: as §1
# [9] = target: GlcNAc(b1-3)Gal(b1-4)GlcNAc(b1-2)Man(a1-3)[GlcNAc(b1-3)Gal(b1-4)GlcNAc(b1-2)Man(a1-6)]Man(b1-4)GlcNAc(b1-4)[Fuc(a1-6)]GlcNAc
# Method in brief: as §1
# [10] = target: GlcNAc(b1-3)Gal(b1-4)GlcNAc(b1-2)[GlcNAc(b1-3)Gal(b1-4)GlcNAc(b1-6)]Man(a1-6)[GlcNAc(b1-3)Gal(b1-4)GlcNAc(b1-2)Man(a1-3)]Man(b1-4)GlcNAc(b1-4)GlcNAc
# Method in brief: as §1
# [11] = target: GlcNAc(b1-3)Gal(b1-4)GlcNAc(b1-3)Gal(b1-4)GlcNAc
# Method in brief: as §1
# [12] = target: GlcNAc(b1-3)Gal(b1-4)GlcNAc(b1-3)Gal(b1-4)GlcNAc(b1-2)Man(a1-3)[GlcNAc(b1-3)Gal(b1-4)GlcNAc(b1-3)Gal(b1-4)GlcNAc(b1-2)Man(a1-6)]Man(b1-4)GlcNAc(b1-4)GlcNAc
# Method in brief: as §1
# [13] = target: GlcNAc(b1-3)Gal(b1-4)GlcNAc(b1-3)Gal(b1-4)GlcNAc(b1-2)Man(a1-3)[GlcNAc(b1-3)Gal(b1-4)GlcNAc(b1-3)Gal(b1-4)GlcNAc(b1-2)Man(a1-6)]Man(b1-4)GlcNAc(b1-4)[Fuc(a1-6)]GlcNAc
# Method in brief: as §1
# [14] = target: GlcNAc(b1-3)Gal(b1-4)GlcNAc(b1-3)Gal(b1-4)GlcNAc(b1-2)[GlcNAc(b1-3)Gal(b1-4)GlcNAc(b1-3)Gal(b1-4)GlcNAc(b1-6)]Man(a1-6)[GlcNAc(b1-3)Gal(b1-4)GlcNAc(b1-3)Gal(b1-4)GlcNAc(b1-2)Man(a1-3)]Man(b1-4)GlcNAc(b1-4)[Fuc(a1-6)]GlcNAc
# Method in brief: as §1
# [15] = target: GlcNAc(b1-3)Gal(b1-4)GlcNAc(b1-3)Gal(b1-4)GlcNAc(b1-3)Gal(b1-4)GlcNAc(b1-2)Man(a1-3)[GlcNAc(b1-3)Gal(b1-4)GlcNAc(b1-3)Gal(b1-4)GlcNAc(b1-3)Gal(b1-4)GlcNAc(b1-2)Man(a1-6)]Man(b1-4)GlcNAc(b1-4)GlcNAc
# Method in brief: as §1
# [16] = target: GlcNAc(b1-3)Gal(b1-4)GlcNAc(b1-3)Gal(b1-4)GlcNAc(b1-3)Gal(b1-4)GlcNAc(b1-2)Man(a1-3)[GlcNAc(b1-3)Gal(b1-4)GlcNAc(b1-3)Gal(b1-4)GlcNAc(b1-3)Gal(b1-4)GlcNAc(b1-2)Man(a1-6)]Man(b1-4)GlcNAc(b1-4)[Fuc(a1-6)]GlcNAc
# Method in brief: as §1
# [17] = target: GlcNAc(b1-3)Gal(b1-4)GlcNAc(b1-3)Gal(b1-4)GlcNAc(b1-3)Gal(b1-4)GlcNAc(b1-2)[GlcNAc(b1-3)Gal(b1-4)GlcNAc(b1-3)Gal(b1-4)GlcNAc(b1-3)Gal(b1-4)GlcNAc(b1-6)]Man(a1-6)[GlcNAc(b1-3)Gal(b1-4)GlcNAc(b1-3)Gal(b1-4)GlcNAc(b1-3)Gal(b1-4)GlcNAc(b1-2)Man(a1-3)]Man(b1-4)GlcNAc(b1-4)[Fuc(a1-6)]GlcNAc
# Method in brief: as §1
# [18] = target: GlcNAc(b1-3)Gal(b1-4)GlcNAc(b1-3)Gal(b1-4)GlcNAc(b1-3)Gal(b1-4)GlcNAc(b1-3)Gal(b1-4)GlcNAc(b1-2)Man(a1-3)[GlcNAc(b1-3)Gal(b1-4)GlcNAc(b1-3)Gal(b1-4)GlcNAc(b1-3)Gal(b1-4)GlcNAc(b1-3)Gal(b1-4)GlcNAc(b1-2)Man(a1-6)]Man(b1-4)GlcNAc(b1-4)GlcNAc
# Method in brief: as §1
# [19] = target: GlcNAc(b1-3)Gal(b1-4)GlcNAc(b1-3)Gal(b1-4)GlcNAc(b1-3)Gal(b1-4)GlcNAc(b1-3)Gal(b1-4)GlcNAc(b1-2)Man(a1-3)[GlcNAc(b1-3)Gal(b1-4)GlcNAc(b1-3)Gal(b1-4)GlcNAc(b1-3)Gal(b1-4)GlcNAc(b1-3)Gal(b1-4)GlcNAc(b1-2)Man(a1-6)]Man(b1-4)GlcNAc(b1-4)[Fuc(a1-6)]GlcNAc
# Method in brief: as §1
# [20] = target: GlcNAc(b1-3)Gal(b1-4)GlcNAc(b1-3)Gal(b1-4)GlcNAc(b1-3)Gal(b1-4)GlcNAc(b1-3)Gal(b1-4)GlcNAc(b1-2)[GlcNAc(b1-3)Gal(b1-4)GlcNAc(b1-3)Gal(b1-4)GlcNAc(b1-3)Gal(b1-4)GlcNAc(b1-3)Gal(b1-4)GlcNAc(b1-6)]Man(a1-6)[GlcNAc(b1-3)Gal(b1-4)GlcNAc(b1-3)Gal(b1-4)GlcNAc(b1-3)Gal(b1-4)GlcNAc(b1-3)Gal(b1-4)GlcNAc(b1-2)Man(a1-3)]Man(b1-4)GlcNAc(b1-4)[Fuc(a1-6)]GlcNAc
# Method in brief: as §1
binder,measurement,setting,value
B1,glycan array binding signal (z-score),[1],0.624
same,glycan array binding signal (z-score),[2],-0.683
same,glycan array binding signal (z-score),[3],-1.76
same,glycan array binding signal (z-score),[4],-0.18
same,glycan array binding signal (z-score),[5],0.238
same,glycan array binding signal (z-score),GlcNAc(b1-3)Fuc,0.13
same,glycan array binding signal (z-score),GlcNAc(b1-3)Gal,-0.971
same,glycan array binding signal (z-score),[6],-0.512
same,glycan array binding signal (z-score),GlcNAc(b1-3)Gal(b1-4)Glc,0.314
same,glycan array binding signal (z-score),[7],-0.328
same,glycan array binding signal (z-score),[8],-0.308
same,glycan array binding signal (z-score),[9],0.752
same,glycan array binding signal (z-score),[10],1.26
same,glycan array binding signal (z-score),[11],-0.273
same,glycan array binding signal (z-score),[12],0.7
same,glycan array binding signal (z-score),[13],-0.74
same,glycan array binding signal (z-score),[14],0.296
same,glycan array binding signal (z-score),[15],-0.256
same,glycan array binding signal (z-score),[16],0.198
same,glycan array binding signal (z-score),[17],0.903
same,glycan array binding signal (z-score),[18],0.174
same,glycan array binding signal (z-score),[19],1.41
same,glycan array binding signal (z-score),[20],1.15

# A second format for part of the listing above:
binder	measurement	setting	value
B1	glycan array binding signal (z-score)	[8]	-0.308
same	glycan array binding signal (z-score)	[9]	0.752
